{"source": "PubChem BioAssay AID1688", "about": "(National Center for Advancing Translational Sciences (NCATS), 2009)", "note": "Screen size: about 220,000 compounds; about 2,400 (1.1%) were called active. Inconclusive results, whose numbers are uncertain, are shown with a selection of clear calls. The call rests on the fitted dose curve; in most records, active means well fitted inhibition curve with a large enough effect; inconclusive means small, poorly fitted or top-dose-only effect, or effect the other way; inactive means no such curve, though single readings can be large or run the other way. Where the call is inconclusive, the potency comes from a doubtful curve fit. On the % scale 0 is the no-effect control and ±100 the full control effect; potency means the concentration at half of the fitted maximal effect.", "data": [{"experiment": "qHTS Multiplex Assay to Identify Dual Action Probes in a Cell Model of Huntington: Aggregate Formation (GFP); further: nearly all actives have a fitted effect of over 60% in size", "settings": "PC12 HttQ103-GFP aggregates, Acumen cytometry, 40 h; activity change, negative = inhibition: at 46.1 µM (top of the series) unless noted", "summary_of_the_method": "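Using laser scanning cytometry, GFP-positive aggregates were counted after lysis of PC12 cells induced with 100 nM tebufenozide to express HTT exon 1 Q103–GFP. Compounds were tested in titration.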", "values": [{"compound": "CC(=O)c1c(C)oc2ccc(N(C(C)=O)S(=O)(=O)c3cccc([N+](=O)[O-])c3)cc12", "Potency": "inconclusive: 14.1 µM [inhibitor, single point]"}, {"compound": "COc1cc2nc(SCC(=O)c3ccc(Br)cc3)n3nc(C)nc3c2cc1OC", "Potency": "inconclusive: 35.5 µM [activator, single point]"}, {"compound": "Cc1noc(C)c1COc1ccc(C(=O)NCC2CCCO2)cc1", "note": "(centres undefined)", "Potency": "inactive"}, {"compound": "Cc1cc(N/N=C/c2ccc(Cl)cc2)nc(NCc2ccccc2)n1", "Potency": "active: 12.6 µM"}, {"compound": "COC(=O)Oc1ccc(/C=N/NC(=O)CSCc2ccccc2Br)cc1OC", "Potency": "inconclusive: 3.16 µM [inhibitor, full curve]"}, {"compound": "CNC(=S)/N=C/NOCc1ccc(Cl)cc1Cl", "Potency": "active: 7.94 µM"}, {"compound": "O=c1[nH]c2ccccc2n1CCCSc1cnc2ccccc2n1", "Potency": "active: 11.2 µM"}, {"compound": "O=C(Nc1nc(-c2ccc(Cl)cc2)cs1)NC1CCCCC1", "Potency": "inconclusive: 35.5 µM [inhibitor, single point]"}, {"compound": "O=C(C[n+]1cn(C(F)F)c2ccccc21)c1ccc(OC(F)F)cc1", "Potency": "inconclusive: 12.6 µM [inhibitor, single point]"}, {"compound": "FC(F)(F)c1cnc(NNC(=S)Nc2ccc(Cl)cc2)c(Cl)c1", "Potency": "active: 11.2 µM"}, {"compound": "COCc1nnc(NC(=O)c2ccc(S(=O)(=O)N3CCCc4ccccc43)cc2)o1", "Potency": "inconclusive: 8.91 µM [inhibitor, partial curve]"}, {"compound": "CCC(C)OC(=O)c1[nH]c2c(c1C)C(=O)CC(c1ccc(N(C)C)cc1)C2", "note": "(centres undefined)", "Potency": "inconclusive: 35.5 µM [inhibitor, single point]"}, {"compound": "O=C(/C=C/c1ccc2c(c1)OCO2)Nc1nc(-c2ccccc2)cs1", "Potency": "inconclusive: 35.5 µM [inhibitor, single point]"}, {"compound": "COc1ccc(C(=O)NCCSc2ccccc2)cc1OC", "Potency": "inconclusive: 0.398 µM [activator, partial curve]"}, {"compound": "O=C(C1=C[C@@H]2[C@H]3C(=O)N(c4ccc(Cl)cc4)C(=O)[C@H]3[C@@H](C(=O)c3ccc(Cl)cc3)N2C=C1)c1ccccc1", "Potency": "inconclusive: 12.6 µM [activator, single point]"}, {"compound": "COc1ccccc1N(C)S(=O)(=O)c1ccc(C(=O)OCC(=O)NCCC2=CCCCC2)cc1", "Potency": "inactive"}, {"compound": "N#Cc1c(NC(=O)CSc2nc(-c3ccco3)cc(C(F)(F)F)n2)sc2c1CCCC2", "Potency": "inactive"}, {"compound": "Cc1ccc(NS(=O)(=O)c2ccc(NC(=O)c3ccc(Br)o3)cc2)c(C)c1", "Potency": "inconclusive: 35.5 µM [inhibitor, single point]"}, {"compound": "COC(C[C@@H]1O[C@@H]1[C@H](O)[C@H](C)OCc1ccccc1)OC", "Potency": "inconclusive: 1.12 µM [activator, single point]"}, {"compound": "CCCN(CCC)S(=O)(=O)c1ccc(C(=O)Nc2nc(-c3ccccc3)c(C(=O)OCC)s2)cc1", "Potency": "inconclusive: 5.62 µM [inhibitor, single point]"}, {"compound": "C=CCn1c(SCc2nc3cc(C(=O)OC)ccc3c(=O)[nH]2)nc2sc(CC)cc2c1=O", "Potency": "inconclusive: 3.55 µM [activator, partial curve]"}, {"compound": "COc1ccc(/C=C2\\N=C(c3ccccc3)N(c3ccc(C(=O)O)cc3)C2=O)cc1OC", "activity change, negative = inhibition": "inactive: -7.45% [at 9.22 µM]"}, {"compound": "O=S(=O)(N1CCOCC1)n1cnc2ccccc21", "Potency": "inconclusive: 35.5 µM [inhibitor, single point]"}, {"compound": "CCc1ccc(CNc2ccc(N3CCN(C(C)=O)CC3)cc2)cc1", "Potency": "inconclusive: 1 µM [activator, partial curve, poor fit]"}, {"compound": "COC(=O)c1ccc2c(c1O)C(=O)c1ccccc1C2=O", "Potency": "inactive"}, {"compound": "COC(=O)CC1=C(C(=O)OC)C(c2cccc(OCC(N)=O)c2)C(C#N)=C(N)O1", "note": "(centres undefined)", "Potency": "inactive"}, {"compound": "CCCOc1nc2c(c(=O)n(C)c(=O)n2C)n1Cc1cccc2ccccc12", "Potency": "active: 12.6 µM"}, {"compound": "COc1ccc(NC(=O)/C(C#N)=C/c2ccc(Sc3nncn3C)c([N+](=O)[O-])c2)cc1", "Potency": "inactive"}, {"compound": "C=CCn1c(SCC(=O)c2cccs2)nc2sc(CC)cc2c1=O", "Potency": "inconclusive: 17.8 µM [inhibitor, single point]"}, {"compound": "CCN(CC)CCNC(=O)c1sc2ncn(CC(=O)Nc3ccc(C)c(Cl)c3)c(=O)c2c1C", "Potency": "inconclusive: 35.5 µM [inhibitor, single point]"}, {"compound": "CC(=O)Nc1ccc(NC(=O)CCn2c(=S)oc3ccccc32)cc1", "Potency": "inconclusive: 5.62 µM [activator, single point]"}, {"compound": "O=C(NCCCN1CCCC1=O)c1cncc(Br)c1", "Potency": "inconclusive: 3.98 µM [inhibitor, single point]"}, {"compound": "c1ccc(Cc2nnc(N3CCCCC3)c3ccccc23)cc1", "Potency": "inconclusive: 22.4 µM [inhibitor, single point]"}, {"compound": "C(=N\\Nc1ncnc2sc3c(c12)CCC3)/c1cccs1", "Potency": "inconclusive: 28.2 µM [inhibitor, single point]"}, {"compound": "O=C(c1cncc(Br)c1)N1CCc2ccccc2C1", "Potency": "active: 10 µM"}, {"compound": "Cc1ccc(NC(=O)Cn2nnc(-c3ccccc3NC(=O)c3cccs3)n2)cc1", "Potency": "inconclusive: 4.47 µM [inhibitor, single point]"}, {"compound": "CC(C)(C)NC(=O)C(=O)NNC(=O)c1cccc(F)c1", "Potency": "active: 0.631 µM"}, {"compound": "CCC(NC(=O)c1ccccc1NC(=O)c1ccccc1)C(=O)O", "note": "(centres undefined)", "Potency": "inconclusive: 1.26 µM [inhibitor, single point]"}, {"compound": "Cc1ccc(Cn2cnc3ccccc32)cc1C", "Potency": "inconclusive: 17.8 µM [inhibitor, single point]"}, {"compound": "COc1ccc(OC)c(C(=O)c2coc3ccc(O)cc23)c1", "Potency": "inconclusive: 11.2 µM [inhibitor, single point]"}, {"compound": "CCCCN(CC)S(=O)(=O)c1ccc(C(=O)Nc2nnc(CSC)o2)cc1", "Potency": "active: 10 µM"}, {"compound": "COc1ccc(C2(c3ccc(O)cc3O)CC(c3ccccc3Cl)NC(=S)N2)cc1", "note": "(centres undefined)", "Potency": "inactive"}, {"compound": "CCCS(=O)(=O)N1CCCC(C(=O)N2CCC(Cc3ccccc3)CC2)C1", "note": "(centres undefined)", "Potency": "inconclusive: 7.94 µM [inhibitor, partial curve]"}, {"compound": "CS(=O)(=O)N1CCN(C(=O)c2ccccc2F)CC1", "Potency": "inconclusive: 5.62 µM [activator, single point]"}, {"compound": "O=[N+]([O-])c1cc(F)c2cccnc2c1O", "activity change, negative = inhibition": "inactive: -19.3% [at 9.22 µM]"}, {"compound": "COCC(C)n1c(C)cc(C(=O)CSc2cc(C)c3ccccc3n2)c1C", "note": "(centres undefined)", "Potency": "inconclusive: 14.1 µM [inhibitor, single point]"}, {"compound": "CC(=O)c1c(C)n(-c2ccccc2)c2ccc(O)cc12", "Potency": "active: 10 µM"}, {"compound": "CCOc1ccc(/C=N/NC(=O)Cc2csc(Nc3cccc(C(F)(F)F)c3)n2)cc1", "Potency": "inconclusive: 35.5 µM [inhibitor, single point]"}, {"compound": "CC1CC2(C)Oc3ccccc3CC2C(C)C1CNCCCN(C)C", "note": "(centres undefined)", "Potency": "inconclusive: 12.6 µM [inhibitor, single point]"}, {"compound": "O=C(NNc1ccc(C(F)(F)F)cc1[N+](=O)[O-])c1ccc(NS(=O)(=O)c2ccc(F)cc2)cc1", "Potency": "inconclusive: 35.5 µM [inhibitor, single point]"}, {"compound": "CCc1ccc(C(=O)CN(C#N)c2nc(C)cc(C)n2)cc1", "Potency": "inconclusive: 15.8 µM [inhibitor, single point]"}, {"compound": "c1cncc(-c2nc(NCC3COc4ccccc4O3)c3ccccc3n2)c1", "note": "(centres undefined)", "Potency": "inconclusive: 35.5 µM [inhibitor, single point]"}, {"compound": "O=C(O)CSc1nnc(C2CC2)n1-c1ccccc1", "Potency": "inconclusive: 0.562 µM [inhibitor, partial curve, poor fit]"}, {"compound": "CC(=O)N1CCN(c2c(F)c(F)c(C(F)(F)F)c(F)c2F)CC1", "activity change, negative = inhibition": "inactive: -0.282% [at 9.22 µM]"}, {"compound": "O=C(O)c1ccccc1N/N=C/c1cc(Br)cc(Br)c1O", "activity change, negative = inhibition": "inactive: 4.97% [at 9.22 µM]"}, {"compound": "Cn1c(=O)c2c(nc(Oc3ccc(-c4ccccc4)cc3)n2C)n(C)c1=O", "Potency": "active: 2.82 µM"}, {"compound": "N#CCC(=O)NNC(=S)Nc1ccccc1C(F)(F)F", "Potency": "inconclusive: 15.8 µM [inhibitor, single point]"}, {"compound": "C/C(=N\\N=c1/sc2ccccc2n1C)c1ccccn1", "Potency": "inconclusive: 22.4 µM [inhibitor, partial curve]"}, {"compound": "COc1ccnc(Oc2ccc(F)cc2)c1C(=O)N/C=N/OCc1c(Cl)cccc1Cl", "Potency": "inconclusive: 22.4 µM [inhibitor, single point]"}, {"compound": "CCCCN(CC)c1nc(-c2ccncc2)nc2ccccc12", "Potency": "inconclusive: 3.55 µM [inhibitor, single point]"}, {"compound": "CC(C)NC(=O)COC(=O)c1cc(=O)[nH]c2ccccc12", "Potency": "inconclusive: 14.1 µM [inhibitor, single point]"}, {"compound": "O=C(COc1ccc(Br)cc1Br)NC(=S)N1CCCc2ccccc21", "Potency": "inconclusive: 35.5 µM [inhibitor, single point]"}, {"compound": "O=[N+]([O-])c1cc(Cl)c(O)c2ncccc12", "Potency": "active: 7.94 µM"}, {"compound": "O=C1OC(c2ccccc2)/C(=C(/O)c2ccc(Cl)cc2)C1=O", "note": "(centres undefined)", "Potency": "inconclusive: 5.62 µM [inhibitor, single point]"}, {"compound": "NC(=O)c1ccc(N2CCN(c3ccccc3O)CC2)c([N+](=O)[O-])c1", "Potency": "inconclusive: 11.2 µM [inhibitor, single point]"}, {"compound": "COc1cc(OC)c(C(=O)COc2ncnc3ccccc23)c(OC)c1", "Potency": "inactive"}, {"compound": "O=[N+]([O-])c1ccc(O)c(NC(=S)Nc2ccccc2)c1", "Potency": "inactive"}, {"compound": "O=C(N/N=C/c1ccc(N2CCOCC2)cc1)c1ccc(NS(=O)(=O)c2cccs2)cc1", "Potency": "inconclusive: 4.47 µM [activator, full curve]"}, {"compound": "c1ccc(CSc2ccc(-c3cccnc3)nn2)nc1", "Potency": "inactive"}]}]}
